Laboratory results published in US10647742 (dated 2020).

Test: general procedure: Fmoc solid-phase peptide synthesis; Rink amide resin, Rink amide AM Resin or Rink amide MBHA Resin, substitution degree 0.2-1.0 mmol/g; HBTU/HOBt/DIPEA
Details: whole synthesis, scale of the general procedure 25.00 g of Rink-Amide resin, 0.20 mmol/g

Substance | final HPLC purity (HPLC, 220 nm) [%] | crude HPLC purity (HPLC, 220 nm, run 1) [%] | crude HPLC purity (HPLC, 220 nm, run 2) [%] | crude HPLC purity (HPLC, 220 nm, run 3) [%] | crude yield (run 1) [%] | crude yield (run 2) [%] | crude yield (run 3) [%] | crude HPLC purity (HPLC, 220 nm) [%] | crude yield [%]
Etelcalcetide | 98.50 | 81.5 | 80.8 | 81.0 | 96.20 | 98.01 | 95.16 | – | –
H-D-Cys^1-D-Ala^2-D-Arg^3-D-Arg^4-D-Arg^5-D-Ala^6-D-Arg^7-NH2 | – | – | – | – | – | – | – | 85.2 | 95.24
